Data: publication doi:10.1101/2022.06.25.497591
Results are given in words; binding and its absence hold for the method and conditions named. Binding seen in cells or lysates may run through a third protein. Some entries that bind do so weakly or less than the wild type.

Amino acid sequences for entries named in this document (tags omitted).
UniProt O60884: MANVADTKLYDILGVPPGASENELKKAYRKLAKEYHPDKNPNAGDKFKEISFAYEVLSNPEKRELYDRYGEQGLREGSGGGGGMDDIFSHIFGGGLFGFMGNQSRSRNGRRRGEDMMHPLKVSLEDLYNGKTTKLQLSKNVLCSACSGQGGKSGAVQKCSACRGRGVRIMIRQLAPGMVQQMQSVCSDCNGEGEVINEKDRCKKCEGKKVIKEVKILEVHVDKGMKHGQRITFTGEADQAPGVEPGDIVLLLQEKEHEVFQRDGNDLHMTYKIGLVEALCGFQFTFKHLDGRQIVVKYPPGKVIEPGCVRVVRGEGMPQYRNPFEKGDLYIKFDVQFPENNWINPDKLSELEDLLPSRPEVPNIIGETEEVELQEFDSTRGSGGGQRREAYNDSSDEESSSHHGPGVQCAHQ
UniProt P25685: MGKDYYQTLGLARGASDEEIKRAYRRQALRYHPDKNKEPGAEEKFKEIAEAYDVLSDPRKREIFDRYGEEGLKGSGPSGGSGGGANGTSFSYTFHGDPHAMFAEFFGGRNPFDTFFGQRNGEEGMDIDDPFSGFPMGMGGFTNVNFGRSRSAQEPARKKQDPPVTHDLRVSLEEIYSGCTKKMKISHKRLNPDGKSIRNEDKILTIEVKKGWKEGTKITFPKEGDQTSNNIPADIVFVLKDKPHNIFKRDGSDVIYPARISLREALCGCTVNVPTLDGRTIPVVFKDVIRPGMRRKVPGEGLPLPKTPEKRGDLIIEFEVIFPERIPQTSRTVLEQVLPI
UniProt Q9UDY4: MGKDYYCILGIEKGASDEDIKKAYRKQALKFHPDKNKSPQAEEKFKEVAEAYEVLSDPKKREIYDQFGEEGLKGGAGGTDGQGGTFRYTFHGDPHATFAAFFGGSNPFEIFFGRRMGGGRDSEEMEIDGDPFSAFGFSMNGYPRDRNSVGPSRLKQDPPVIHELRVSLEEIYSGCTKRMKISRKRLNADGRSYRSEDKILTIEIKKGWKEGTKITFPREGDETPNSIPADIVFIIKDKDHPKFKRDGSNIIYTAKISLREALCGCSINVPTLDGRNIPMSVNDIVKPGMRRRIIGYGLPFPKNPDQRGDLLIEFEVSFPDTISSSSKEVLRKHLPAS

Tests used:
Experiment in all cases: proximity ligation
[1] = target: DNAJA2 (human (endogenous in HeLa)) (UniProt O60884)
[2] = target: DNAJA1 (human (endogenous in HeLa, HEK 293 and human dermal fibroblasts)) (UniProt P31689)
[3] = target: DNAJB1 (human (endogenous in HeLa, HEK 293 and human dermal fibroblasts)) (UniProt P25685)

| binding [1] | binding [2] | binding [3] | Substance |
| --- | --- | --- | --- |
| binds |  |  | DNAJB1 (from UniProt P25685 1-340) |
| binds | binds | binds | DNAJB4 (from UniProt Q9UDY4 1-337) |
